# Laboratory results from patent publication US20230024461A1, “METHODS FOR DUAL DNA/PROTEIN TAGGING OF OPEN CHROMATIN” (Beth Israel Deaconess Medical Center, Inc., priority 2019, published 2023).
# B1: TP5: Tn5 transposase-GSGAGA linker-APEX2 peroxidase fusion, C-terminal FLAG; amino acid SEQ ID NO: 31 (protein)
# chain: MITSALHRAADWAKSVFSSAALGDPRRTARLVNVAAQLAKYSGKSITISSEGSKAMQEGAYRFIRNPNVSAEAIRKAGAMQTVKLAQEFPELLAIEDTTSLSYRHQVAEELGKLGSIQDKSRGWWVHSVLLLEATTFRTVGLLHQEWWMRPDDPADADEKESGKWLAAAATSRLRMGSMMSNVIAVCDREADIHAYLQDKLAHNERFVVRSKHPRKDVESGLYLYDHLKNQPELGGYQISIPQKGVVDKRGKRKNRPARKASLSLRSGRITLKQGNITLNAVLAEEINPPKGETPLKWLLLTSEPVESLAQALRVIDIYTHRWRIEEFHKAWKTGAGAERQRMEEPDNLERMVSILSFVAVRLLQLRESFTPPQALRAQGLLKEAEHVESQSAETVLTPDECQLLGYLDKGKRKRKEKAGSLQWAYMAIARLGGFMDSKRTGIASWGALWEGWEALQSKLDGFLAAKDLMAQGIKIGSGAGAGKSYPTVSADYQDAVEKAKKKLRGFIAEKRCAPLMLRLAFHSAGTFDKGTKTGGPFGTIKHPAELAHSANNGLDIAVRLLEPLKAEFPILSYADFYQLAGVVAVEVTGGPKVPFHPGREDKPEPPPEGRLPDPTKGSDHLRDVFGKAMGLTDQDIVALSGGHTIGAAHKERSGFEGPWTSNPLIFDNSYFTELLSGEKEGLLQLPSDKALLSDPVFRPLVDKYAADEDAFFADYAEAHQKLSELGFADADYKDDDDK
# modifications: C-terminal FLAG
# Tested on: HEK293T nuclei
# Experiment: iDAPT-MS quantitative mass spectrometry
# Set-up: species or system human
# Conditions: FDR threshold of 5%
molecule,measurement,value
B1,significant proteins enriched versus APEX2 alone,"1,395 proteins"
